We go through one substance from publication PMC11247805.

By UniProt entry, the sequences of proteins in these tests, tags left out. Where a name states a change or a piece, a line headed by the entry shows the natural chain unless it says otherwise.
UniProt G4NJG9: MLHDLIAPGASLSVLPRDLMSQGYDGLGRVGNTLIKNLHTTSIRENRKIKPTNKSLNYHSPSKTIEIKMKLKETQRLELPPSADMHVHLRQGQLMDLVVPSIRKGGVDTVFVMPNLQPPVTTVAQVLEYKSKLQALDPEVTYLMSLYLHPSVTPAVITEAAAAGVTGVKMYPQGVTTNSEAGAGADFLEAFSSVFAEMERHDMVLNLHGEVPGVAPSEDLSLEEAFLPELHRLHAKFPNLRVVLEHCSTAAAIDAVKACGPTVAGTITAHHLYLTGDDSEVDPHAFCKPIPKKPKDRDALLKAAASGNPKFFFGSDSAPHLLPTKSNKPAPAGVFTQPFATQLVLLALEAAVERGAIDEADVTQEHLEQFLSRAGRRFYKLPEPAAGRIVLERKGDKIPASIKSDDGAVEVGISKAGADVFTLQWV

For this test, the target named is T1, MoAtg5-GFP (Magnaporthe oryzae) (UniProt Q525E4).
T1 sequence: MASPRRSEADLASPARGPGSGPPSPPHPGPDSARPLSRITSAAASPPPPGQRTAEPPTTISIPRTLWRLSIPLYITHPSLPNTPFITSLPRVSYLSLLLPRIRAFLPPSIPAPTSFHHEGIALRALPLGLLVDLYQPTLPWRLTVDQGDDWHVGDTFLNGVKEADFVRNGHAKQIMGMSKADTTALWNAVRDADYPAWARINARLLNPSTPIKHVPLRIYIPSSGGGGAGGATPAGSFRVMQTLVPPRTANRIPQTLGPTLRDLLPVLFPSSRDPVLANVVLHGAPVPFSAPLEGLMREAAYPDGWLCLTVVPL
Description: affinity purification with mass spectrometry.

No constants are given. Whether binding was seen depends on the method and setting. Binding seen in cells or lysates may run through a third protein. These calls come from enrichment with a bait or labelling near it, and not all partners need be listed. Sequences can lack the tags named with a protein.

On to “MoPyr4 (found in the immunoprecipitate of MoAtg5-GFP) (from UniProt G4NJG9) (enzyme)”, for which the binding result was “binds”.
